Results: the supplement of paper PMC10060354, “Discovery of a small molecule ligand of FRS2 that inhibits invasion and tumor growth” (Cellular Oncology, 2022)

Protein sequences, listed by entry. Tags and fused reporters are not part of them. Lines headed by an entry give the natural chain unless they say otherwise; changes in a name come on top.
UniProt Q01628, whole entry: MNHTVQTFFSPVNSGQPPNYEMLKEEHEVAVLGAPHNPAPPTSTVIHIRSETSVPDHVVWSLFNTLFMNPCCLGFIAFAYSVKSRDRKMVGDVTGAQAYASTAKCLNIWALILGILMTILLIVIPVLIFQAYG
UniProt Q8IX12: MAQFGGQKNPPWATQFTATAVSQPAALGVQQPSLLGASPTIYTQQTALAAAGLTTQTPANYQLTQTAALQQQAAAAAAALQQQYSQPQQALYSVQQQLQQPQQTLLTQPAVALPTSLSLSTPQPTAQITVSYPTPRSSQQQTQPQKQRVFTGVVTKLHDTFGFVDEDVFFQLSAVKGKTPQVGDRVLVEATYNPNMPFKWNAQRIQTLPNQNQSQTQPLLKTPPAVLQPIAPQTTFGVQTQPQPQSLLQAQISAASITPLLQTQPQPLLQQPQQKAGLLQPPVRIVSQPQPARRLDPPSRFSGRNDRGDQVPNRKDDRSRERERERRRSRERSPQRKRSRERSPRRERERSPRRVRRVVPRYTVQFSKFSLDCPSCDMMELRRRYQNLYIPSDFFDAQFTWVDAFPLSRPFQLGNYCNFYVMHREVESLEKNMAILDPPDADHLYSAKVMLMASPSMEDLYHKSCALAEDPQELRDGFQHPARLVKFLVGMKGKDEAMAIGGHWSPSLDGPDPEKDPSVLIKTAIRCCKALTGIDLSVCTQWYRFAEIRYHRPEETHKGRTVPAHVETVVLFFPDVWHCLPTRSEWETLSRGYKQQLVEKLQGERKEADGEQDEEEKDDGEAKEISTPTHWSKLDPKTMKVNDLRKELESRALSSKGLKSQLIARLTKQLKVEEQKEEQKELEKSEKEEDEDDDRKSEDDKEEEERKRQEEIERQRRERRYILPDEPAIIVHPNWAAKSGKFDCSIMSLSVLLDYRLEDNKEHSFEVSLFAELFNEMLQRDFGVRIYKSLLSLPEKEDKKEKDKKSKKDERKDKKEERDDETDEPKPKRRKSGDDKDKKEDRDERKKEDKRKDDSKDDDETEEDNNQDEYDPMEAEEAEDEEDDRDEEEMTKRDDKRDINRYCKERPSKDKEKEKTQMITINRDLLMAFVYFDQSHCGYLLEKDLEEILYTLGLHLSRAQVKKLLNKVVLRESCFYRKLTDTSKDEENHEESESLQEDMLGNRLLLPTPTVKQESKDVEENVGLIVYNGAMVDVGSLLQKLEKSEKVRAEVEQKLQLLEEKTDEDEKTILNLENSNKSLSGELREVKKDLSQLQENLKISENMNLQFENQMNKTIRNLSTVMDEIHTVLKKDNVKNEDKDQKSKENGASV
UniProt P82909: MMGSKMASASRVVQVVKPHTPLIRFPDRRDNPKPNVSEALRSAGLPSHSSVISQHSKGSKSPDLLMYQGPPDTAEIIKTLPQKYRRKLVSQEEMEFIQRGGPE
UniProt Q9H1K1: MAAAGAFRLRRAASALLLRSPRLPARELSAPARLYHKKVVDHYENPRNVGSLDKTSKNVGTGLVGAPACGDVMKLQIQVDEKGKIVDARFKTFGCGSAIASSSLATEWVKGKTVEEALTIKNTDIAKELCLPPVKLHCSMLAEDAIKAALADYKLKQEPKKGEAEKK
UniProt Q9Y2H0: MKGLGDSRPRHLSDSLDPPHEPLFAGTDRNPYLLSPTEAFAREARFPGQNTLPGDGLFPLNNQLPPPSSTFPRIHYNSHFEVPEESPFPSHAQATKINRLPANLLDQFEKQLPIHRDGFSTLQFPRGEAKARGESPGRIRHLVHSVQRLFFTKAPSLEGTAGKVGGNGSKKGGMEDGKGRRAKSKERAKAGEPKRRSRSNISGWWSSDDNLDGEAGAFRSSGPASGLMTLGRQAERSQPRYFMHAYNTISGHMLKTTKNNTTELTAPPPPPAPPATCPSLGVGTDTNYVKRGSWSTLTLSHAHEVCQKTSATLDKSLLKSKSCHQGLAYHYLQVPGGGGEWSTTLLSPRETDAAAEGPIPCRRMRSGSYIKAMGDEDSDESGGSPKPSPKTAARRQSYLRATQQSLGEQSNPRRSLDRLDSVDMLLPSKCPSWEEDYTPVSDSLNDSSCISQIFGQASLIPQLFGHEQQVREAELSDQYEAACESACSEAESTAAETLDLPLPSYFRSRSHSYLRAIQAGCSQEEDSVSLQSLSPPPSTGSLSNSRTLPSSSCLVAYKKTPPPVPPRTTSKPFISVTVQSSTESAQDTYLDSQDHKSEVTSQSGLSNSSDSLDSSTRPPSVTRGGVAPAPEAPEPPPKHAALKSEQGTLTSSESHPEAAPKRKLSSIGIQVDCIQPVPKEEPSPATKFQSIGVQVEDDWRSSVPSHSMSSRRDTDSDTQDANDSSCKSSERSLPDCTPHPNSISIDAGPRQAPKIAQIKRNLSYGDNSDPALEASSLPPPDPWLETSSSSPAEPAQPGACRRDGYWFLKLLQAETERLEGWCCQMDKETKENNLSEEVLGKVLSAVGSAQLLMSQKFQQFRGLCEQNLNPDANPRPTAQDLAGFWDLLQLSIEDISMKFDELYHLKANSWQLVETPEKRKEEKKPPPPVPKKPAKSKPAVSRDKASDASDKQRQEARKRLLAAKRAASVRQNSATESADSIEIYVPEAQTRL
UniProt P36543, whole entry: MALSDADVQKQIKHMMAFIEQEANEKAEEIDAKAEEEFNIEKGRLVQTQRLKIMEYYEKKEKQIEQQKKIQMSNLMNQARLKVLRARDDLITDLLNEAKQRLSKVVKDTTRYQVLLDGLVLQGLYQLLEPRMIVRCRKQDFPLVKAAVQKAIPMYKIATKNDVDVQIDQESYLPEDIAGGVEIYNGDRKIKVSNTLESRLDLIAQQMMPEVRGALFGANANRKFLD
UniProt P42892: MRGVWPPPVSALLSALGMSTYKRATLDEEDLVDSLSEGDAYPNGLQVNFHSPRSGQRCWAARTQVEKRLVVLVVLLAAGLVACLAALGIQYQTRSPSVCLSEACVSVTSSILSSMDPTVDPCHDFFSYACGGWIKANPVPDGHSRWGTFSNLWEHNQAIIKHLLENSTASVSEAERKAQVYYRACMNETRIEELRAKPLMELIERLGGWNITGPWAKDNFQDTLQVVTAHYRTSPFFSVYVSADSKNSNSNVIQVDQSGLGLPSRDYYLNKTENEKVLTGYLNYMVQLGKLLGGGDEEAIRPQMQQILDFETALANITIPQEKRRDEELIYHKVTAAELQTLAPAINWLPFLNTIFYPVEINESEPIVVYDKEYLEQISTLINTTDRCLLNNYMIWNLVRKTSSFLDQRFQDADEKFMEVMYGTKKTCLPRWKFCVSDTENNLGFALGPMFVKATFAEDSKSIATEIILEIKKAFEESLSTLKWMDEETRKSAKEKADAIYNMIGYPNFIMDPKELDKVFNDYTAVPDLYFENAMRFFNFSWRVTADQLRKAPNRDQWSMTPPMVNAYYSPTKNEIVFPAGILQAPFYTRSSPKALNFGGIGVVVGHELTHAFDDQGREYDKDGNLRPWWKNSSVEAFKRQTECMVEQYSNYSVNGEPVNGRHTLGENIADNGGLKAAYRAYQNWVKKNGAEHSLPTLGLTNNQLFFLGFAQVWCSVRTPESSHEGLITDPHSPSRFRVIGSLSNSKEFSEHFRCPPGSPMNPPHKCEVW
UniProt Q6Y7W6: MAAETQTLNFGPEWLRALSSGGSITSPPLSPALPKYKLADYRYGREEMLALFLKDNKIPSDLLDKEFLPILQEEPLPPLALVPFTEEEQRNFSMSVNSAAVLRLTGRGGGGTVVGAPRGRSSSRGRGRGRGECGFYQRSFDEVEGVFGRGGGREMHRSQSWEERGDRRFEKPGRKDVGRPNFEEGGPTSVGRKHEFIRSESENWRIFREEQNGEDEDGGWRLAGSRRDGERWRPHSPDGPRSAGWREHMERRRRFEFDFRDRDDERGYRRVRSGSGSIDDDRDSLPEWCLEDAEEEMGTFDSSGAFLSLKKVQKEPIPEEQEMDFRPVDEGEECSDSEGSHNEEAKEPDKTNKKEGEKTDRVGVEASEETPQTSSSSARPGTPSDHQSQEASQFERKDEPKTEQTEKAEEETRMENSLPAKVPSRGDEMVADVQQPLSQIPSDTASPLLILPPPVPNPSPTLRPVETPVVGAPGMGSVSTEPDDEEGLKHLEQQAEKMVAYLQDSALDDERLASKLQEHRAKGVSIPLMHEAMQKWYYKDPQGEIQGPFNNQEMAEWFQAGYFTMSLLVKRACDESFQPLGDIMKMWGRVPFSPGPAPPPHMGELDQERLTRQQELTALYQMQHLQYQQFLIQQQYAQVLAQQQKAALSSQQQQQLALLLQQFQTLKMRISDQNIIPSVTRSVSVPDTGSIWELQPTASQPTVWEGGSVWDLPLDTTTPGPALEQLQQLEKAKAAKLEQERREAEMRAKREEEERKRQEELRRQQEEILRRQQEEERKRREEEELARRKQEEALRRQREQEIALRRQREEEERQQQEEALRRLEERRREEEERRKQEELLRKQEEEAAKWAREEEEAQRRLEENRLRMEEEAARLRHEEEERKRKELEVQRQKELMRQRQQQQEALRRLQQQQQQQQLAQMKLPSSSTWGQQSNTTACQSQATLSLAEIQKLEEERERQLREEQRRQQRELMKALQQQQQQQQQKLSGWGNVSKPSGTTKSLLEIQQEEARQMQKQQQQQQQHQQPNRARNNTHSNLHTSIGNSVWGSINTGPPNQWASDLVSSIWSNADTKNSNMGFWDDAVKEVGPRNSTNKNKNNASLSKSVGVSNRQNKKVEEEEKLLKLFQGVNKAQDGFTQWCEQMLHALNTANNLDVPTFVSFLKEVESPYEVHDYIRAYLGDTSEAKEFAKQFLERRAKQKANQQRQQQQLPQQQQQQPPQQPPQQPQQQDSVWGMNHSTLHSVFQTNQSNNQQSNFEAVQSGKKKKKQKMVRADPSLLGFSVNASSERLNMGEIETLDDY
UniProt Q9UG56: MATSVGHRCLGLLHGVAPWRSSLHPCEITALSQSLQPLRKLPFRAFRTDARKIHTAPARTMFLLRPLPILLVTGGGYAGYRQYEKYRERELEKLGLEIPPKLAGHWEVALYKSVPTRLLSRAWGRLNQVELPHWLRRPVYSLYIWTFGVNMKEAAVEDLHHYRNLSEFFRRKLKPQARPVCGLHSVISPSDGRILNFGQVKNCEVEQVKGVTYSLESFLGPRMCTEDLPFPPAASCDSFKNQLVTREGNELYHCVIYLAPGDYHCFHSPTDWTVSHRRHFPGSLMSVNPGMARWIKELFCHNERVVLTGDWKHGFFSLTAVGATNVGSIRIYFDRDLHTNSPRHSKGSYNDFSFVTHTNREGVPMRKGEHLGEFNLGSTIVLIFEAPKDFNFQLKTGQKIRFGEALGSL
UniProt Q9NR22, whole entry, looked up: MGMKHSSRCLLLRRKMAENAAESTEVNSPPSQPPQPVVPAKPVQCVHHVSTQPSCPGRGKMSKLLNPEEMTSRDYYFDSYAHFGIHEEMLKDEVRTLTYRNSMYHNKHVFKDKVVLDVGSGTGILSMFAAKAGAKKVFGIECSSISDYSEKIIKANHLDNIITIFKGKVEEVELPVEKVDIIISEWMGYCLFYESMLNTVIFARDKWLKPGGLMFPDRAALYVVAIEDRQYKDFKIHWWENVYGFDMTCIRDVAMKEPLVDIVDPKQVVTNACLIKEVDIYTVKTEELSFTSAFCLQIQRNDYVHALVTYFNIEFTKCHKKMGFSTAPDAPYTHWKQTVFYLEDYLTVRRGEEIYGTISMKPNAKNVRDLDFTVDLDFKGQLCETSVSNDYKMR
UniProt O14782: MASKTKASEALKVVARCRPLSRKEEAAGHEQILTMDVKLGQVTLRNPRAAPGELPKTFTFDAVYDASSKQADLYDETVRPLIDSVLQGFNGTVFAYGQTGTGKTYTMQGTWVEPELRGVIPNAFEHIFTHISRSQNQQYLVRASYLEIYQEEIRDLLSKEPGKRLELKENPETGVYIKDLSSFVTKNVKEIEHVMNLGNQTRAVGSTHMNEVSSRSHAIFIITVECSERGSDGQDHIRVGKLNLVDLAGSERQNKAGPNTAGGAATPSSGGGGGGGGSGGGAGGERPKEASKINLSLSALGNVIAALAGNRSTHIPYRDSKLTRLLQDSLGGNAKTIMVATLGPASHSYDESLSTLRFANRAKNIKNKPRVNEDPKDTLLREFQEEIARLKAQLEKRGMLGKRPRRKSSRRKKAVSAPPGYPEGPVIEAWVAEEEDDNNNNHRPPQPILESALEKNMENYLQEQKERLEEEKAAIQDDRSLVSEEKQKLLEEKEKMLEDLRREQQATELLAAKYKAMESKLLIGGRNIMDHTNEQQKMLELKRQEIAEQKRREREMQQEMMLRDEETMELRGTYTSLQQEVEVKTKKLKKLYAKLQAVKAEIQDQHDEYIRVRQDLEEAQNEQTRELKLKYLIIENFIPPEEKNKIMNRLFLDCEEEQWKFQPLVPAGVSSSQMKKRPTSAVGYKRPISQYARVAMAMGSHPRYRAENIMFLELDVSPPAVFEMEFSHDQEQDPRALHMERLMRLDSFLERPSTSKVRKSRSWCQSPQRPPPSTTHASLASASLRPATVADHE
UniProt P60903, whole entry: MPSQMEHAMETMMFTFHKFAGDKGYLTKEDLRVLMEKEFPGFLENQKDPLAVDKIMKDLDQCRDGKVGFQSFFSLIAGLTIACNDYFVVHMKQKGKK

Compound: [O-][N+](C(C1=C(C(O)=C2)NC(C(C=C3)=CC=C3Cl)C4C1C=CC4)=C2Cl)=O
Assay: melting temperature shift (compound 7 minus DMSO); higher = compound stabilises the protein
Details: 10 µM
Experimental: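 Thermal proteome profiling (TMT mass spectrometry) in intact DAOY medulloblastoma cells or DAOY lysates treated with 10 µM compound 7 or DMSO, heated at 10 temperatures from 40.5 to 73.8 °C for 3 min. Melting curves were fitted with the Bioconductor TPP package, and the melting point difference between compound and vehicle is reported per protein (single curve per condition).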

[1] = system: DAOY cell lysate, treatment time: 20 min, 4 °C
[2] = system: intact DAOY cells, treatment time: 90 min, 37 °C

Row | Target | melting temperature shift [1] | melting temperature shift [2]
1 | SEH1L (UniProt Q96EE3) | 0.595 °C | -0.0516 °C
2 | UniProt Q01628 | 2.61 °C | –
3 | CCAR1 (UniProt Q8IX12) | -0.435 °C | 0.266 °C
4 | CBX8 (UniProt Q9HC52) | 2.42 °C | –
5 | TCAF1 (UniProt Q9Y4C2) | -0.694 °C | 0.0801 °C
6 | MAPK14 (UniProt Q16539) | -0.685 °C | -1.01 °C
7 | EEF1E1 (UniProt O43324) | -0.64 °C | -1.12 °C
8 | MRPS36 (UniProt P82909) | 1.96 °C | –
9 | MANF (UniProt P55145) | -1.52 °C | –
10 | TM7SF3 (UniProt Q9NS93) | -3.23 °C | –
11 | SLC25A46 (UniProt Q96AG3) | – | -0.481 °C
12 | UniProt Q8NHM5 | 0.674 °C | –
13 | GOLT1B (UniProt Q9Y3E0) | 1.71 °C | –
14 | ARRB1 (UniProt P49407) | 2.15 °C | 1.99 °C
15 | ITPR2 (UniProt Q14571) | 3.27 °C | -1.12 °C
16 | IFIT3 (UniProt O14879) | 0.451 °C | 1.77 °C
17 | RPL7A (UniProt P62424) | 0.766 °C | -0.401 °C
18 | TRAPPC4 (UniProt Q9Y296) | -0.712 °C | 1.36 °C
19 | UniProt Q15274 | – | -3.29 °C
20 | DERL2 (UniProt Q9GZP9) | 0.924 °C | -2.66 °C
21 | ZC3H4 (UniProt Q9UPT8) | 1.06 °C | –
22 | PON2 (UniProt Q15165) | 1.04 °C | -0.599 °C
23 | UniProt P14543 | – | 3.07 °C

Row | Target | melting temperature shift [1] | melting temperature shift [2]
24 | HUWE1 (UniProt Q7Z6Z7) | -0.502 °C | 0.173 °C
25 | PXN (UniProt P49023) | -2.03 °C | 1.53 °C
26 | BPTF (UniProt Q12830) | -0.628 °C | 2.75 °C
27 | CS (UniProt O75390) | 1.01 °C | 0.124 °C
28 | FEM1B (UniProt Q9UK73) | -3.19 °C | 1.8 °C
29 | GRSF1 (UniProt Q12849) | 0.864 °C | 0.634 °C
30 | RPS16 (UniProt P62249) | 0.093 °C | -0.642 °C
31 | UniProt P54132 | – | 1.6 °C
32 | TBC1D5 (UniProt Q92609) | -0.786 °C | -0.487 °C
33 | NDUFS3 (UniProt O75489) | 0.679 °C | -0.288 °C
34 | TPRKB (UniProt Q9Y3C4) | -0.181 °C | 0.342 °C
35 | MTHFD1 (UniProt P11586) | -0.64 °C | -1.01 °C
36 | DIP2B (UniProt Q9P265) | -1.03 °C | 0.35 °C
37 | UniProt P62380 | -0.792 °C | –
38 | PPP6C (UniProt O00743) | -0.656 °C | 0.579 °C
39 | ISCU (UniProt Q9H1K1) | 2.12 °C | –
40 | UniProt Q6SPF0 | 3.13 °C | –
41 | UniProt Q8N5B7 | 2.39 °C | –
42 | DLGAP4 (UniProt Q9Y2H0) | 0.217 °C | 0.44 °C
43 | VAT1 (UniProt Q99536) | -0.0998 °C | -0.54 °C
44 | PPP6R3 (UniProt Q5H9R7) | -1.1 °C | 0.978 °C
45 | UniProt O43731 | -0.249 °C | –
46 | IMPACT (UniProt Q9P2X3) | -1.29 °C | -0.893 °C

Row | Target | melting temperature shift [1] | melting temperature shift [2]
47 | HOOK3 (UniProt Q86VS8) | -0.745 °C | -0.82 °C
48 | PLEKHA5 (UniProt Q9HAU0) | -0.127 °C | 1.42 °C
49 | TIAL1 (UniProt Q01085) | 0.427 °C | -0.377 °C
50 | IMPA1 (UniProt P29218) | -2.45 °C | –
51 | RPL13A (UniProt P40429) | 0.367 °C | -0.529 °C
52 | TFCP2 (UniProt Q12800) | 1.06 °C | 0.364 °C
53 | UniProt P0DN86 | 5.13 °C | –
54 | LSM14B (UniProt Q9BX40) | 0.555 °C | -0.3 °C
55 | HADHA (UniProt P40939) | 1.26 °C | 0.966 °C
56 | XRN2 (UniProt Q9H0D6) | 0.325 °C | 0.427 °C
57 | UniProt Q6IS14 | – | -0.0724 °C
58 | SCD (UniProt O00767) | 1.54 °C | 0.0429 °C
59 | SNX17 (UniProt Q15036) | -0.477 °C | 1.49 °C
60 | ANKS1A (UniProt Q92625) | -0.852 °C | 0.995 °C
61 | ATP6V1E1 (UniProt P36543) | -0.411 °C | 0.587 °C
62 | DUSP12 (UniProt Q9UNI6) | 0.334 °C | 0.671 °C
63 | AMPD2 (UniProt Q01433) | -0.93 °C | 0.11 °C
64 | SIAE (UniProt Q9HAT2) | 1.95 °C | –
65 | UniProt Q8NFQ8 | 2.12 °C | -0.122 °C
66 | TALDO1 (UniProt P37837) | -0.408 °C | 0.216 °C
67 | SEC23IP (UniProt Q9Y6Y8) | 0.441 °C | 0.0166 °C
68 | HOOK1 (UniProt Q9UJC3) | -0.173 °C | –
69 | UniProt P58215 | 0.73 °C | 0.255 °C

Single entries from the entries so far:
XRN2 (UniProt Q9H0D6) | melting temperature shift [1]: 0.325 °C
HADHA (UniProt P40939) | melting temperature shift [2]: 0.966 °C
DUSP12 (UniProt Q9UNI6) | melting temperature shift [1]: 0.334 °C
LSM14B (UniProt Q9BX40) | melting temperature shift [2]: -0.3 °C
UniProt P0DN86 | melting temperature shift [1]: 5.13 °C

Going on with the list.

Row | Target | melting temperature shift [1] | melting temperature shift [2]
70 | ECE1 (UniProt P42892) | -0.111 °C | -0.815 °C
71 | CERS2 (UniProt Q96G23) | -0.069 °C | -1.79 °C
72 | ARL1 (UniProt P40616) | -0.071 °C | -1.68 °C
73 | RB1CC1 (UniProt Q8TDY2) | 1.75 °C | -1.96 °C
74 | GIGYF2 (UniProt Q6Y7W6) | -0.381 °C | -0.14 °C
75 | CLASP1 (UniProt Q7Z460) | 0.0147 °C | 1.36 °C
76 | PISD (UniProt Q9UG56) | 1.94 °C | –
77 | UniProt Q9NR22 | – | -0.327 °C
78 | AHCYL2 (UniProt Q96HN2) | 2.02 °C | -3.59 °C
79 | TMEM87A (UniProt Q8NBN3) | 0.0692 °C | –
80 | MEAF6 (UniProt Q9HAF1) | – | 0.299 °C
81 | TNRC6A (UniProt Q8NDV7) | 5.37 °C | -0.113 °C
82 | SSFA2 (UniProt P28290) | -10.1 °C | –
83 | TXNDC17 (UniProt Q9BRA2) | -1.35 °C | 0.0743 °C
84 | UniProt O14782 | – | 0.285 °C
85 | UniProt Q8N7P1 | – | 0.279 °C
86 | LSM2 (UniProt Q9Y333) | 0.144 °C | 0.546 °C
87 | CINP (UniProt Q9BW66) | -2.74 °C | 0.873 °C
88 | HNRNPA1 (UniProt P09651) | 0.908 °C | 0.00459 °C
89 | UniProt Q96RF0 | 0.693 °C | 0.627 °C
90 | VRK2 (UniProt Q86Y07) | -1.06 °C | -0.666 °C
91 | S100A10 (UniProt P60903) | 0.906 °C | -1.14 °C
92 | UniProt Q9UFF9 | -1.43 °C | -2.11 °C

Row | Target | melting temperature shift [1] | melting temperature shift [2]
93 | UBE2S (UniProt Q16763) | -0.268 °C | -0.373 °C
94 | CDK2AP1 (UniProt O14519) | 3.9 °C | –
95 | CENPH (UniProt Q9H3R5) | -0.871 °C | –
96 | RPL36 (UniProt Q9Y3U8) | 0.531 °C | -0.715 °C
97 | UniProt O14647 | 0.535 °C | –
98 | ADSS (UniProt P30520) | -0.508 °C | 0.755 °C
99 | LIN9 (UniProt Q5TKA1) | – | 1.57 °C
100 | UniProt Q8NFI4 | – | -0.016 °C
101 | GLO1 (UniProt Q04760) | -1.06 °C | 0.925 °C
102 | EDEM3 (UniProt Q9BZQ6) | 0.918 °C | 0.46 °C
103 | DVL2 (UniProt O14641) | -0.454 °C | 0.124 °C
104 | SMC5 (UniProt Q8IY18) | -0.227 °C | 0.686 °C
105 | UniProt Q99638 | -0.415 °C | –
106 | GPN1 (UniProt Q9HCN4) | -3.66 °C | 3.61 °C
107 | UPF3B (UniProt Q9BZI7) | -0.224 °C | 0.338 °C
108 | BABAM1 (UniProt Q9NWV8) | -0.214 °C | -1.08 °C
109 | UniProt Q9UK61 | 1.38 °C | 1.57 °C
110 | UniProt Q674X7 | 2.06 °C | –
111 | NAT10 (UniProt Q9H0A0) | 1.02 °C | 0.348 °C
112 | UniProt Q15173 | – | -0.534 °C
113 | ENY2 (UniProt Q9NPA8) | -1.18 °C | –
114 | PEAK1 (UniProt Q9H792) | -0.328 °C | –

Many values rest on one well or one pass, so single values are uncertain.
